No constants are given. Whether binding was seen depends on the method and setting. In cells and extracts the contact can be indirect. Some binding calls cover weakened binding; strength is not graded here.
Assays:
Assay in all cases: pull-down; co-expression in E. coli; sequential affinity purification: His•BTG2 on Co2+-agarose, then GST•Ccr4 on glutathione (Pierce GST spin columns); SDS/PAGE and immunoblot of the purified complexes
GST•Ccr4a (human) = GST•Ccr4a (human) (UniProt Q9ULM6)
GST•Ccr4a E240A (human) = GST•Ccr4a E240A (human) (UniProt Q9ULM6)
His•BTG2 (human) = His•BTG2 (human) (UniProt P78543)

Sequences of proteins named here, by UniProt entry; tags and fusion partners are left off. A change or cut given only in a name is not applied to a line headed by its entry.
UniProt Q9ULM6: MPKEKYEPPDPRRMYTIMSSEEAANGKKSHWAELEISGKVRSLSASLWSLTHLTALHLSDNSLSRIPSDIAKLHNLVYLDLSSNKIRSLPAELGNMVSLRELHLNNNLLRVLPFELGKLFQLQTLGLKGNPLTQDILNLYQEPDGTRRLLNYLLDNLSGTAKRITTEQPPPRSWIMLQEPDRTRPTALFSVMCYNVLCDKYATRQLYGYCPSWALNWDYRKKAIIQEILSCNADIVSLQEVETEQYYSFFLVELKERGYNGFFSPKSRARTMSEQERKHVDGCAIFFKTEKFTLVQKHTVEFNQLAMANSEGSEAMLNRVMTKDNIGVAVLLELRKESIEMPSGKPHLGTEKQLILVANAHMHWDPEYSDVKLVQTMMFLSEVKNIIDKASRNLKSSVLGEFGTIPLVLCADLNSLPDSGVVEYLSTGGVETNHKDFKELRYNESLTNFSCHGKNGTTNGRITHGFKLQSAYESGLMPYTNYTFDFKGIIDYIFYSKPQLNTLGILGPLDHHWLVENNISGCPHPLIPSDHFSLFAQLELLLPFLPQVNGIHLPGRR
UniProt P78543: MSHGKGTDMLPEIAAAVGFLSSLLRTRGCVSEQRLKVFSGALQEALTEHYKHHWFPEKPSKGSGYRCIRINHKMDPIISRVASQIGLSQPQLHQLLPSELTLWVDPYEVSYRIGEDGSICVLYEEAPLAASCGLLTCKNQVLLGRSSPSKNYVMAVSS
UniProt Q9UIV1: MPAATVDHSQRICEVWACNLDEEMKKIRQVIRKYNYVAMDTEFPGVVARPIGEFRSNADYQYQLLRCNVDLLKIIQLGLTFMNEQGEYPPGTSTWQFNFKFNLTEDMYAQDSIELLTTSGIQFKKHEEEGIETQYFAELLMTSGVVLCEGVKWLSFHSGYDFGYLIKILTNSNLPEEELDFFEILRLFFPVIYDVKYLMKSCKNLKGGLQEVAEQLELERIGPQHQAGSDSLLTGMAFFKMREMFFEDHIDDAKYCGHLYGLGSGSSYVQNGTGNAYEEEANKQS

| Substance | binding (GST•Ccr4a (human)) | binding (GST•Ccr4a E240A (human)) | binding (His•BTG2 (human)) |
| --- | --- | --- | --- |
| Caf1/CNOT7 (from UniProt Q9UIV1 1-285) (enzyme) | binds | binds | – |
| Caf1/CNOT7 D40A (from UniProt Q9UIV1 1-285) (enzyme) | binds | binds | – |
| GST•Ccr4a (from UniProt Q9ULM6 1-557) (enzyme) | – | – | binds |
| GST•Ccr4a E240A (from UniProt Q9ULM6 1-557) (enzyme) | – | – | binds |
